Values from PubChem BioAssay AID504804 (Drosophila RNAi Screening Center, 2011).
Aim: 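dsRNAs that improve Kc cell survival under doxorubicin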 (primary screen). Cell system: Drosophila Kc cells. Reagents: long dsRNA against Drosophila genes, 0.5 µg dsRNA per well. Duration: 96 h (48 h knock-down, then 48 h drug). Conditions: doxorubicin 5 µg/ml for 48 h, added 48 h after dsRNA. Measured: 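Viability measured as cellular ATP by luminescence after 48 h knock-down then 48 h doxorubicin at 5 µg/ml; unnormalised plate counts for each replicate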. Scale: raw ATP luminescence: higher = more viable cells, protection from doxorubicin. Call rule: 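z-score of 2 or more over plate mean in both duplicates, retained only when retests and separate dsRNAs confirm the protection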.
The screen tested about 19,000 reagents; below is a random part of those with a known target gene and a result. Over the whole deposit, 47 (0.25%) were called active. 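Signals are raw, not normalised; exact z-scores behind calls not deposited; actives needed confirmation, so some wells reaching 2 SD are inactive.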 Unmarked entries are inactive. Reagents against one gene are numbered here. A plus sign joins genes that one reagent is predicted to hit.

no.	Gene	reagent no.	raw ATP luminescence, replicate 1	raw ATP luminescence, replicate 2
1	cad (caudal)	1	35593	46923
2	His3.3B (Histone H3.3B)	1	3.00e5	2.71e5
3	His3.3B (Histone H3.3B)	2	3.19e5	2.92e5
4	Cyp9f2 (Cytochrome P450 9f2)	1	63290	31997
5	lolal (lola like)	1	72967	64500
6	CG14374	1	73680	80460
7	CG9926	1	58613	23393
8	CG30471	1	56413	74773
9	CG9500	1	20123	20007
10	fig (fos intronic gene)	1	61110	48490
11	CG30151	1	1.64e5	98897
12	CG8888	1	66490	57290
13	sti (sticky)	1	62723	49577
14	sti (sticky)	2	64910	48690
15	Fadd (Fas-associated death domain)	1	80660	78150
16	pk (prickle)	1	44447	77283
17	pk (prickle)	2	55230	74773
18	CG17141	1	61140	60630
19	Grl43a (Gustatory receptor-like 43a)	1	29583	58267
20	CG42505 + CG42504 + CG31358	1	73860	42980
21	CG42505 + CG42504 + CG31358	2	2.01e5	1.55e5
22	CG42505 + CG42504 + CG31358	3	43513	53773
23	CG32679	1	1.72e5	1.87e5
24	Jhbp16 (Juvenile hormone binding protein 16)	1	49850	46560
25	Rcd-1 (Required for cell differentiation 1)	1	2.03e5	2.24e5
26	Mhcl (Myosin heavy chain-like)	1	2.16e5	2.27e5
27	Mhcl (Myosin heavy chain-like)	2	57910	76250
28	Mhcl (Myosin heavy chain-like)	3	84560	81640
29	CG40378 (retired record)	1	2.22e5	2.69e5
30	BI-1 (Bax Inhibitor-1)	1	33297	28693
31	CG17292	1	1.19e5	92610
32	Pdzd8 (PDZ domain containing 8)	1	3.54e5	3.28e5
33	Rbbp5 + CG6434 (retired record)	1	60277	62880
34	CG33635	1	2.32e5	2.53e5
